# Test results as given in the supplement of paper PMC12819154, “High-throughput peptide-centric local stability assay extends protein–ligand identification to membrane proteins, tissues and bacteria” (Nature Structural & Molecular Biology, 2025).
# Chains of the proteins cited; added tags and fusions are not shown. Lines headed by an entry give the natural chain unless they say otherwise; changes in a name come on top.
# UniProt O60499: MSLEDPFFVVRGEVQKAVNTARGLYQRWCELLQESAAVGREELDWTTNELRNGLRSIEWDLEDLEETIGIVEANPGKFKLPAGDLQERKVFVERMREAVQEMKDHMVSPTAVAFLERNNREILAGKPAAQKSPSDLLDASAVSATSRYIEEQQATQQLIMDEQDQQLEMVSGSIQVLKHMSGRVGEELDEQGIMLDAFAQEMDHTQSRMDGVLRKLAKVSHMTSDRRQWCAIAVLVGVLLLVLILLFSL
# UniProt O43678, whole entry: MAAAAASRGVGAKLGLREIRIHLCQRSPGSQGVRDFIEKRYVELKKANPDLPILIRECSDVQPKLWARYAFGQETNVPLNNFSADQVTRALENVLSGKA
# UniProt O60732: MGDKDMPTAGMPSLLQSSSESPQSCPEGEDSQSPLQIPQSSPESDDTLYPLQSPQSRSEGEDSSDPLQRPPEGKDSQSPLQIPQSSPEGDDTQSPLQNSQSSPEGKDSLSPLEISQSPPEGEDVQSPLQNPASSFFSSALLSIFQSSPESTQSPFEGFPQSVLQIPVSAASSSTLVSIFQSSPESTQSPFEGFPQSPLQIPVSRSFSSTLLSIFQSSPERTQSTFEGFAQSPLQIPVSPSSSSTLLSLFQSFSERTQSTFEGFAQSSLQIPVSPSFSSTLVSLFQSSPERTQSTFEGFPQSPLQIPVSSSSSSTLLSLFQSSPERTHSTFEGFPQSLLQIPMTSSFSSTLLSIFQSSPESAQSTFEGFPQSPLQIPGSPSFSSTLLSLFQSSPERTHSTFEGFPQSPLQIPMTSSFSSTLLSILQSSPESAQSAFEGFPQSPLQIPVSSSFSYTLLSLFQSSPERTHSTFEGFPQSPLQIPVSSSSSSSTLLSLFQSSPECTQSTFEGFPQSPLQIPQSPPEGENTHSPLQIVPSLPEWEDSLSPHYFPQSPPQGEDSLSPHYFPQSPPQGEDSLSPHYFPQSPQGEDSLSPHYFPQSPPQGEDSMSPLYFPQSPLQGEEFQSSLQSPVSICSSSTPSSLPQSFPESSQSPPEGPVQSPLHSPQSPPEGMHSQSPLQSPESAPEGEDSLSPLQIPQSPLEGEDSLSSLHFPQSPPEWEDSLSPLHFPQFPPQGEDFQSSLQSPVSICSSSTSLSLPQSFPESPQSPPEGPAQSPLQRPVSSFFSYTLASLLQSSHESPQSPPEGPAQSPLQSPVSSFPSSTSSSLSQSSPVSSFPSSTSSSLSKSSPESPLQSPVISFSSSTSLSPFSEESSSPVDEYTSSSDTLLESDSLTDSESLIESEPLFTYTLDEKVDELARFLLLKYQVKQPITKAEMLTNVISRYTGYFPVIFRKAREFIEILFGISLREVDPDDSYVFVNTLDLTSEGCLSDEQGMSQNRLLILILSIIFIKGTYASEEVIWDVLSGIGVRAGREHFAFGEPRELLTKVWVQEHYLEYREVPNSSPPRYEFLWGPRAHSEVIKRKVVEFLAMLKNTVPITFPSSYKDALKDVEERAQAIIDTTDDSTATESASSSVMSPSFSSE
# UniProt O43491, whole entry: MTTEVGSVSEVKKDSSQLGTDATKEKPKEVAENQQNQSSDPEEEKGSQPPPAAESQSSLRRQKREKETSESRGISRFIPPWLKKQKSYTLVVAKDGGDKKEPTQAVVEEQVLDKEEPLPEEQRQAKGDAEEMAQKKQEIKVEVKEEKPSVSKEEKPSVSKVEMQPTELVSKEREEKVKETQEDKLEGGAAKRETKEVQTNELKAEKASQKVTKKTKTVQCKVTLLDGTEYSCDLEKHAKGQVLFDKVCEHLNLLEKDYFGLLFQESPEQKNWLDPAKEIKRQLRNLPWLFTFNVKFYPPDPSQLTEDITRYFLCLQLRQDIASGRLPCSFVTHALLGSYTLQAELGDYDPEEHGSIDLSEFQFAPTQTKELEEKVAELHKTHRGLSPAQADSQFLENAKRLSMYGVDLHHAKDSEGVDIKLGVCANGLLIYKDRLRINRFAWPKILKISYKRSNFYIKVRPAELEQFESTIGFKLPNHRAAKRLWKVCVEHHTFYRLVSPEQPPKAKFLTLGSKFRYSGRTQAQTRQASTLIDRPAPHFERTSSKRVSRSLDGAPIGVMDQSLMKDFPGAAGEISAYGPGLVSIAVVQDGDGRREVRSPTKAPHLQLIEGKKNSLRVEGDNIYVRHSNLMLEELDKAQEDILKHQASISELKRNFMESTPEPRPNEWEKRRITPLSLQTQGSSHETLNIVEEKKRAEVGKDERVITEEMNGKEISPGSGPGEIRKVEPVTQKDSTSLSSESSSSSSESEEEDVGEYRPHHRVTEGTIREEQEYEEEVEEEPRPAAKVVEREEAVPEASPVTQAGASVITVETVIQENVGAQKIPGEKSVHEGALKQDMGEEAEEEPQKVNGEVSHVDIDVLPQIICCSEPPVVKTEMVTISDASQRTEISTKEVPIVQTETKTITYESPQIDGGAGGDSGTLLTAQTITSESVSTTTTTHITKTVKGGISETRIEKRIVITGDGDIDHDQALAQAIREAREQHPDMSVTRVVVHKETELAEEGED
# UniProt O60294: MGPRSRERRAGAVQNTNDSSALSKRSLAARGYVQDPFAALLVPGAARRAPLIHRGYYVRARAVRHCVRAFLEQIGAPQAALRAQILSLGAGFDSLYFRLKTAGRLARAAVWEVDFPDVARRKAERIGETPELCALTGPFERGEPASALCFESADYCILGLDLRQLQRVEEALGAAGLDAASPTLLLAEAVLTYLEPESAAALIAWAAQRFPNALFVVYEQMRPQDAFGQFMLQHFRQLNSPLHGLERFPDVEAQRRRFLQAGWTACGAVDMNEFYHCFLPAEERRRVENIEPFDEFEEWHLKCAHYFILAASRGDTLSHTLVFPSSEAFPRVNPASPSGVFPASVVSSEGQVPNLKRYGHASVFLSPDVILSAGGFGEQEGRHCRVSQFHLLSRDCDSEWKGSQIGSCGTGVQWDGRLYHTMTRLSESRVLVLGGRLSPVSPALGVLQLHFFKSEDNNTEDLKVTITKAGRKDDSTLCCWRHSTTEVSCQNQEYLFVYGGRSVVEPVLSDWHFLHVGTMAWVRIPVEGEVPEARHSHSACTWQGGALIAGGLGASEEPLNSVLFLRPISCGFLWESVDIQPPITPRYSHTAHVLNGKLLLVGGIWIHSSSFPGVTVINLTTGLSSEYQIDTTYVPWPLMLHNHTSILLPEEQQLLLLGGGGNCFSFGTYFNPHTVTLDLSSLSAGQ
# UniProt O60869: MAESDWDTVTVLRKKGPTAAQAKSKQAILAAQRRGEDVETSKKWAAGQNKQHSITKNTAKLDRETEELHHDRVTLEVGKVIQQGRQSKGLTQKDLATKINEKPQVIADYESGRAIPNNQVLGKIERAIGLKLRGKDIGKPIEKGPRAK
# UniProt O43524: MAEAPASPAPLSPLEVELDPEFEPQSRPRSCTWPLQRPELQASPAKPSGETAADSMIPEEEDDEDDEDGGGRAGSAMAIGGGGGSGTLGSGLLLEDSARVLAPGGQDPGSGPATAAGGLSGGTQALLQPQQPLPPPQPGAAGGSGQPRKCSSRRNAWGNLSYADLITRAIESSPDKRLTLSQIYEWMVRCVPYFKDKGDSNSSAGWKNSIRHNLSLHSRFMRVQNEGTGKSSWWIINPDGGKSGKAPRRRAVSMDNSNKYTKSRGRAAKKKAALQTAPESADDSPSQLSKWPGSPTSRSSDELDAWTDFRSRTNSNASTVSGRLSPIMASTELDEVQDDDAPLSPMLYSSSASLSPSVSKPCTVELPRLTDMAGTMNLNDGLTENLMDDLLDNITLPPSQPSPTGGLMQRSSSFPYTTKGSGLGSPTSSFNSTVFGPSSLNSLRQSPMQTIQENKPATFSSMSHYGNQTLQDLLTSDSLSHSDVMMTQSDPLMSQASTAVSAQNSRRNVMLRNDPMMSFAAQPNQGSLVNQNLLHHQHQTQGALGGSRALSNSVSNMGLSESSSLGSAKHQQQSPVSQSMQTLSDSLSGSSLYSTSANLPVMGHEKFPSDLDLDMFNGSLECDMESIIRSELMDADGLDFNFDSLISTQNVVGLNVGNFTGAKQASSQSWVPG
# UniProt O75344: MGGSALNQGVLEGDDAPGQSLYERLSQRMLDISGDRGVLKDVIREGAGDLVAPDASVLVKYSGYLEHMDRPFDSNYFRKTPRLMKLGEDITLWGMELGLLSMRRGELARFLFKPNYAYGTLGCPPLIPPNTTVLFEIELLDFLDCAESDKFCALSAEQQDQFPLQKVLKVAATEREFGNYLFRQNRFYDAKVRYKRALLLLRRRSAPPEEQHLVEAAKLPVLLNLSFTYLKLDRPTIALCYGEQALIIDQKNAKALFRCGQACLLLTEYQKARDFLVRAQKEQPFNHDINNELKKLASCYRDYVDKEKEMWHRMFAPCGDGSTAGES
# UniProt O75064: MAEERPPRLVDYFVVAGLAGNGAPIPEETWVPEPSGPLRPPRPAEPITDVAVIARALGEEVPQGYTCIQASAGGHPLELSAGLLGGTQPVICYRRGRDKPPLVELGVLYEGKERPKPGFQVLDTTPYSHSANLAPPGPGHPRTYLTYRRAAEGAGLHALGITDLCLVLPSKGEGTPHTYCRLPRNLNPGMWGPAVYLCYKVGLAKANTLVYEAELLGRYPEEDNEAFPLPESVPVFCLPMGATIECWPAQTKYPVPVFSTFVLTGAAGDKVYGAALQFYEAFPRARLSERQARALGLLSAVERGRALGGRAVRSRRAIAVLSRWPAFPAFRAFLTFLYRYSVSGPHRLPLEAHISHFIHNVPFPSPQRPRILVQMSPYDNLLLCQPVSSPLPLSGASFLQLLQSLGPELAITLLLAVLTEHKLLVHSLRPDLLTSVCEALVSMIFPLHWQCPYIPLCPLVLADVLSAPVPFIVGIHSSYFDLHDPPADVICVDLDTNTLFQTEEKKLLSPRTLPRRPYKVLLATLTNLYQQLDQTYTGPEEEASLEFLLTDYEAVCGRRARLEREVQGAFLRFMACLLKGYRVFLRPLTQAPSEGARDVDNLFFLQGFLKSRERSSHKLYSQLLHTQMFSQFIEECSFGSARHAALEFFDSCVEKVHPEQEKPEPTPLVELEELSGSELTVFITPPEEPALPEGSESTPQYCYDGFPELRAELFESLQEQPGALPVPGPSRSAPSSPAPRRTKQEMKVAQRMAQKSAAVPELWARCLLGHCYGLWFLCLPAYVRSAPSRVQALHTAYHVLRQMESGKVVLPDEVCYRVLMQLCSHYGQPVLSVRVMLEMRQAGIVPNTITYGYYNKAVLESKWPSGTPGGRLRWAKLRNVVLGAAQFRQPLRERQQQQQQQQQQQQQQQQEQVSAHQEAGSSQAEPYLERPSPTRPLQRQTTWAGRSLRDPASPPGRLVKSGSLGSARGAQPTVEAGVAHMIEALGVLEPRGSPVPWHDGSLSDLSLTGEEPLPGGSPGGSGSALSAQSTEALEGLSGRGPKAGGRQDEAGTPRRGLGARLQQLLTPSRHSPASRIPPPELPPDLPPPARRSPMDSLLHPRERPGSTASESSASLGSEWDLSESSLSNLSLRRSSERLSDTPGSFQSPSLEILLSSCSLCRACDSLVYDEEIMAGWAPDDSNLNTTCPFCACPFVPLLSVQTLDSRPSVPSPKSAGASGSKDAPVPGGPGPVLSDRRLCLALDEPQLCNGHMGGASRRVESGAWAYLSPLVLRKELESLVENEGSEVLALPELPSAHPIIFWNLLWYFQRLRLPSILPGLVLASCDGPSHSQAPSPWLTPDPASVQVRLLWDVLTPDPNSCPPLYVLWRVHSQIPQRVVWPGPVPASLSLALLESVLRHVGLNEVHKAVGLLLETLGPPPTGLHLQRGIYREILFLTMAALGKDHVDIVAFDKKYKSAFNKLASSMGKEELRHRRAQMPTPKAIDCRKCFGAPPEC
# UniProt O43768: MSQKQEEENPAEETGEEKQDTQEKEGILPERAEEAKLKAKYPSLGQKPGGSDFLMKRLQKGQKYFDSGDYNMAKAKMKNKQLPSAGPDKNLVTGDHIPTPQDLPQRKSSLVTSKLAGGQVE
# UniProt O43257, whole entry: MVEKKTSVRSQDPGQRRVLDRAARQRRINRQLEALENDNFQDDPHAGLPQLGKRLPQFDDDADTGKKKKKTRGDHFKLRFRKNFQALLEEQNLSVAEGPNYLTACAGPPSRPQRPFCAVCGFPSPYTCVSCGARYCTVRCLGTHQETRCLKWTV
# UniProt O60779: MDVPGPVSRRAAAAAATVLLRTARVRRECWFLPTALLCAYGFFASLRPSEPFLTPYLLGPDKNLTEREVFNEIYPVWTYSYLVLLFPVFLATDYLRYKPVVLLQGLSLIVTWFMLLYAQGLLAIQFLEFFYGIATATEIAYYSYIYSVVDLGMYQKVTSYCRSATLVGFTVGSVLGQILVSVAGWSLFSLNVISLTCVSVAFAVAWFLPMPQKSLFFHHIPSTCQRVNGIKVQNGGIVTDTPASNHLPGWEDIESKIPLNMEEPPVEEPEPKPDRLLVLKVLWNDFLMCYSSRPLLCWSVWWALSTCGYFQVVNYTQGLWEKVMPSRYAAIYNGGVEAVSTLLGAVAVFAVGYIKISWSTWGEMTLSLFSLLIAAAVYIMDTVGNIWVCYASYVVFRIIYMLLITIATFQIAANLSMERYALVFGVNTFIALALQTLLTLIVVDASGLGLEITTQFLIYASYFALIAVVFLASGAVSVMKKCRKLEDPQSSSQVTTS
# The other results are listed elsewhere or left out. Most entries show no effect beyond the scatter of the controls.
# Compound: CN[C@@H]1C[C@H]2O[C@@](C)([C@@H]1OC)n1c3ccccc3c3c4c(c5c6ccccc6n2c5c31)C(=O)NC4 [staurosporine]
# Experiment: log2 fold change of tryptic peptide abundance, ligand vs vehicle (limited proteolysis) (log2 ratio); higher = more trypsin-susceptible (destabilized)
# Details: ligand concentration: 20 uM; sample: K562 cleared lysate; digestion: 4 min, 22 C (HT-PELSA RT4min, Orbitrap Astral)
row,Target,log2 fold change
1,"TOM1 (peptide sequence: LRSELEMVSGNVR, peptide start residue: 220) (UniProt O60784)",0.259
2,"SSNA1 (peptide sequence: CIEELCQK, peptide start residue: 18) (UniProt O43805)",-0.106
3,"STX10 (peptide sequence: EILAGKPAAQK, peptide start residue: 121) (UniProt O60499)",0.114
4,"KIAA0513 (peptide sequence: FGEYCSSENGK, peptide start residue: 121) (UniProt O60268)",-0.366
5,"ASNA1 (peptide sequence: LEETLPVIR, peptide start residue: 222) (UniProt O43681)",0.419
6,"KPNA6 (peptide sequence: NNALNPEEMRR, peptide start residue: 19) (UniProt O60684)",-0.164
7,"NDUFA2 (peptide sequence: ECSDVQPK, peptide start residue: 57) (UniProt O43678)",-0.141
8,"UniProt O43930 (peptide sequence: VMSIPDVIR, peptide start residue: 79)",-0.606
9,"UniProt O43361 (peptide sequence: VLQVTIPKPALSTLK, peptide start residue: 68)",0.776
10,"MAGEC1 (peptide sequence: AGREHFAFGEPR, peptide start residue: 1030) (UniProt O60732)",0.358
11,"CCNT1 (peptide sequence: VAHTCLHPQESLPDTR, peptide start residue: 107) (UniProt O60563)",-0.956
12,"EPB41L2 (peptide sequence: EEKPSVSK, peptide start residue: 145) (UniProt O43491)",0.339
13,"SS18L1 (peptide sequence: TAECTQYQQILHR, peptide start residue: 44) (UniProt O75177)",-0.495
14,"EIF4E2 (peptide sequence: LLFQNLWKPR, peptide start residue: 232) (UniProt O60573)",-0.109
15,"PPP1R12B (peptide sequence: GSLTEQEPAER, peptide start residue: 28) (UniProt O60237)",-0.45
16,"LCMT2 (peptide sequence: AAVWEVDFPDVARR, peptide start residue: 108) (UniProt O60294)",-0.649
17,"NMT2 (peptide sequence: AMELLSACQGPAR, peptide start residue: 97) (UniProt O60551)",0.282
18,"EDF1 (peptide sequence: DIGKPIEKGPR, peptide start residue: 136) (UniProt O60869)",0.148
19,"UniProt O75312 (peptide sequence: TEGYEAGLAPQR, peptide start residue: 448)",0.0953

# Part of the list above, tab-delimited.
row	Target	log2 fold change
7	NDUFA2 (peptide sequence: ECSDVQPK, peptide start residue: 57) (UniProt O43678)	-0.141
8	UniProt O43930 (peptide sequence: VMSIPDVIR, peptide start residue: 79)	-0.606

# Additional records:

row,Target,log2 fold change
1,"CBFA2T2 (peptide sequence: IQAMSEVQK, peptide start residue: 450) (UniProt O43439)",-0.626
2,"OPHN1 (peptide sequence: QQLQLSLQNTR, peptide start residue: 226) (UniProt O60890)",0.588
3,"FOXO3 (peptide sequence: HNLSLHSR, peptide start residue: 212) (UniProt O43524)",0.567
4,"UniProt O75344 (peptide sequence: DYVDKEK, peptide start residue: 117)",0.146
5,"AKAP8 (peptide sequence: NGSFGGQYSECRDPAR, peptide start residue: 163) (UniProt O43823)",-0.205
6,"URB1 (peptide sequence: MMQTILHFPQNR, peptide start residue: 1602) (UniProt O60287)",0.524
7,"DENND4B (peptide sequence: VVLPDEVCYR, peptide start residue: 808) (UniProt O75064)",0.322
8,"ENSA (peptide sequence: YPSLGQKPGGSDFLMKR, peptide start residue: 41) (UniProt O43768)",0.594
9,"RTN2 (peptide sequence: AKIPGTGALASAAAAVSGSK, peptide start residue: 522) (UniProt O75298)",0.0835
10,"SPAG9 (peptide sequence: FQELSQPR, peptide start residue: 234) (UniProt O60271)",-0.117
11,"NDUFS6 (peptide sequence: VTHTGQVYDDKDYR, peptide start residue: 39) (UniProt O75380)",-0.0878
12,"ZNHIT1 (peptide sequence: LPQFDDDADTGKK, peptide start residue: 55) (UniProt O43257)",0.485
13,"UniProt O60548 (peptide sequence: GAAAAAGSPGPGAAAAR, peptide start residue: 89)",-0.124
14,"UniProt O43189 (peptide sequence: GKVEELGPPSAVR, peptide start residue: 382)",0.479
15,"ANKRD17 (peptide sequence: NSASVQNSSVAVLSVNHIK, peptide start residue: 2191) (UniProt O75179)",-0.263
16,"SLC19A2 (peptide sequence: AAAAAATVLLR, peptide start residue: 11) (UniProt O60779)",-0.0235
17,"NCK2 (peptide sequence: HQAECALNER, peptide start residue: 293) (UniProt O43639)",0.263
18,"TNRC18 (peptide sequence: LTPSLLCSMVAK, peptide start residue: 1756) (UniProt O15417)",-0.303
